At least one compound was matched to its structure with a doubt left.
Tested on: Huntington's disease patient
Assay: Clinical use of PDE10A modulator in a Huntington's disease patient (case report)
Type: in vivo, human
Protocol: A person was admitted to hospital from a long-term care facility due to progressive deterioration of their physical and mental symptoms caused by Huntington's disease. The patient had been diagnosed with Huntington's disease. Prior to admission to the hospital, they had become increasingly aggressive and uncooperative. Moreover, there appeared to be an increase in the number of psychotic episodes. […] The patient had been stable for a number of years on the antipsycotic haloperidol (3 mg/day). For the last two years, the haloperidol had been replaced by olanzapine (2.5-7.5 mg/day). Minocycline, a tetracycline derivative, was administered at 50 mg twice daily for 7 days, followed by 100 mg twice daily for 7 days and finally 200 mg twice daily for 5 weeks. […] The minocycline treatment was suspended for 7 days. […] Minocycline (200 mg twice daily) treatment will continue indefinitely. The improvement in behaviour and decrease in apparent psychosis has allowed for the transfer of the patient from the acute care facility back to long-term care.

CN(C)c1ccc(O)c2c1C[C@H]1C[C@H]3[C@H](N(C)C)C(O)=C(C(N)=O)C(=O)[C@@]3(O)C(O)=C1C2=O [Minocycline]
change versus baseline clinical global assessment after resumed treatment (200 mg twice daily resumed after 7 days of suspension): return to mild-improvement
change versus baseline clinical global assessment made at admission (after 5 weeks of 200 mg twice daily, person with Huntington's disease): mild improvement
behaviour after treatment was suspended (treatment suspended for 7 days): significant increase in the number of aggressive incidence and decrease in cooperativity

Source: patent US20040152106A1, “Gene necessary for striatal function, uses thereof, and compounds for modulating same” (priority 1999, published 2004)
